Laboratory results reported in US20240101716A1.
These are yes or no findings as the source states them, for the method shown. Some entries that bind do so weakly or less than the wild type.

Amino acid sequences for entries named in this document (tags omitted). A change or cut given only in a name is not applied to a line headed by its entry. Chains listed by the source or under a name are the forms on record and can include a tag or linker.
recombinant human SIRPα variant 2 protein (P78324, form named): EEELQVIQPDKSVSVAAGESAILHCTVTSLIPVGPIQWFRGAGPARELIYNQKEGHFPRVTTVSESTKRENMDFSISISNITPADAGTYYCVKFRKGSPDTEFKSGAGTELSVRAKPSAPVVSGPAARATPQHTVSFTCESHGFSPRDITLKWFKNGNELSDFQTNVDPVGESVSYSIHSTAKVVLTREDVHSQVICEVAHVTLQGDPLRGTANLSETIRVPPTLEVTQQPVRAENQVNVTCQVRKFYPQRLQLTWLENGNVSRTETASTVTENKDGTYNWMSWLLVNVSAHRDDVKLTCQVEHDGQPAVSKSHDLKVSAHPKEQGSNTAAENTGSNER

How the values were obtained:
[1] = target: recombinant human SIRPα variant 2 protein (human) (UniProt P78324); test: ELISA, coated antigen
[2] = target: recombinant human SIRPα variant 2 protein (human) (UniProt P78324); test: ELISA, coated antigen (FIG. 1)

- binding [1]: binds
- binding [2]: binds
B1: 300A6A6 (antibody, V domains shown)
VH: QVQLQQSGTELVKPGSSVKISCKASGYTFTSNYIHWIRQQPGNGLEWIGWIYPGDGDTNYNQKFNGKATLTADKSSSTAYMQLSSLTSEDYAVYFCAINYGGIWFAYWGQGTLVTVSS
VL: DIQMTQSPSSMSASLGDRVTITCQASQDIGNKLIWFQQKPGKSPRLMIHYVTNLPGGVPLRFSGSRSGSDYSLTISSLESEDMADYYCLQYKQNPLTFGSGTKLEIK
